Measured values: patent publication US20250325528A1, “[…] ROLE OF mTORC1 INHIBITION OF NON-TUMOR CELLS” (THE BOARD OF REGENTS OF THE UNIVERSITY OF TEXAS SYSTEM, priority 2024, published 2025)
At least one structure is not confirmed: it was looked up by name or label, or the drawing left a doubt.

Tests used:
Type in all cases: in vivo, mice
XP 164 tumorgrafts = assay: RPPA of (phospho)protein levels in TGs, XP164; settings: XP 164 TGs
XP 144 tumorgrafts = assay: RPPA of (phospho)protein levels in TGs, XP144; settings: XP 144 TGs
[1] = tested on: XP144, XP164 and XP490 TGs; assay: Ki67 staining of TGs (cell proliferation)
XP 490 tumorgrafts = assay: RPPA of (phospho)protein levels in TGs, XP490; settings: XP 490 TGs

## CO[C@H]1C[C@@H]2CC[C@@H](C)[C@@](O)(O2)C(=O)C(=O)N2CCCC[C@H]2C(=O)O[C@H]([C@H](C)C[C@@H]2CC[C@@H](O)[C@H](OC)C2)CC(=O)[C@H](C)/C=C(\C)[C@@H](O)[C@@H](OC)C(=O)[C@H](C)C[C@H](C)/C=C/C=C/C=C/1C [rapamycin]
XP 164 tumorgrafts; Resistant
  Annexin-I level compared to Vehicle: ↑
  GPBB level compared to Vehicle: ↑
  MEK1 level compared to Vehicle: ↑
  MIF level compared to Vehicle: ↑
  S6_pS235_S236 level compared to Vehicle: ↓
  S6_pS240_S244 level compared to Vehicle: ↓
XP 164 tumorgrafts; Sensitive (~day 28)
  Chk2 level compared to Vehicle: ↓
  Cyclin-D1 level compared to Vehicle: ↓
  FAK_pY397 level compared to Vehicle: ↓
  MEK1 level compared to Vehicle: ↓
  S6_pS235_S236 level compared to Vehicle: ↓
  S6_pS240_S244 level compared to Vehicle: ↓
  SHP-2_pY542 level compared to Vehicle: ↓
  p21 level compared to Vehicle: ↓
XP 144 tumorgrafts; Resistant
  IRF-1 level compared to Vehicle: ↑↑
  Raptor level compared to Vehicle: ↑
  S6_pS235_S236 level compared to Vehicle: ↓
  S6_pS240_S244 level compared to Vehicle: ↓
XP 144 tumorgrafts; Sensitive (~day 28)
  IRF-1 level compared to Vehicle: ↑
  Raptor level compared to Vehicle: ↑
  S6_pS235_S236 level compared to Vehicle: ↓
  S6_pS240_S244 level compared to Vehicle: ↓
[1]; mTOR-ST mice, rapamycin-treated
  TG cell proliferation (Ki67): maintained in mTOR-ST mice
[1]; wild-type mice, after development of resistance
  TG cell proliferation (Ki67): cell proliferation was increased after the development of resistance
[1]; wild-type mice, sensitive TGs
  TG cell proliferation (Ki67): downregulated TG cell proliferation
XP 490 tumorgrafts; Resistant
  Aurora-B level compared to Vehicle: ↑
  CDK1 level compared to Vehicle: ↑
  Cyclin-B1 level compared to Vehicle: ↑
  PLK1 level compared to Vehicle: ↑
  Pdcd4 level compared to Vehicle: ↑
  Rb_pS807_S811 level compared to Vehicle: ↑
  S6_pS235_S236 level compared to Vehicle: ↓
  S6_pS240_S244 level compared to Vehicle: ↓
XP 490 tumorgrafts; Sensitive (~day 28)
  CDC2-p34 level compared to Vehicle: ↓
  CDK1 level compared to Vehicle: ↓
  Cyclin-B1 level compared to Vehicle: ↓
  FoxM1 level compared to Vehicle: ↓
  MDM2_pS166 level compared to Vehicle: ↓
  PLK1 level compared to Vehicle: ↓
  Pdcd4 level compared to Vehicle: ↑
  Rb_pS807_S811 level compared to Vehicle: ↓
  S6_pS235_S236 level compared to Vehicle: ↓
  S6_pS240_S244 level compared to Vehicle: ↓
  Smad3 level compared to Vehicle: ↓
